The results in this text go back to paper PMC3189220.

The chains behind the UniProt entries cited, without tags or fusion partners. Residues count along the entry.
GST-AF1 (P04150, residues 77-262): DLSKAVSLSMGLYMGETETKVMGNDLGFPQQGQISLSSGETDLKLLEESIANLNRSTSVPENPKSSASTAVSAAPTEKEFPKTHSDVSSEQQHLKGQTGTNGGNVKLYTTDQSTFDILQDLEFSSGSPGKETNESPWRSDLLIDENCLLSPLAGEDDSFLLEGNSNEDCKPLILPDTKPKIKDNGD
GST-DBD (P04150, residues 398-500): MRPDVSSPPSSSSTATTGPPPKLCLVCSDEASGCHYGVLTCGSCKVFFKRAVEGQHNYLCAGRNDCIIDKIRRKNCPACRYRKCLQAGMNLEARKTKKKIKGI
UniProt P20226: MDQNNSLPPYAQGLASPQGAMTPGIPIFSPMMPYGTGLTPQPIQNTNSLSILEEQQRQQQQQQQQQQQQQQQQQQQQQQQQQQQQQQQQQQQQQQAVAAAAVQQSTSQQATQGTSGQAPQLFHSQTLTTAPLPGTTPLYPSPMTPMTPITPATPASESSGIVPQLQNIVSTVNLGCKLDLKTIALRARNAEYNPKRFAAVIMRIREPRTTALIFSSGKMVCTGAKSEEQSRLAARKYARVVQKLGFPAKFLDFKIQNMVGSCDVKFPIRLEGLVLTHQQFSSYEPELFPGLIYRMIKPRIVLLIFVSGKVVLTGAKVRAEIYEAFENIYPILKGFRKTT

Results are given in words; binding and its absence hold for the method and conditions named. Some entries that bind do so weakly or less than the wild type.

In one assay the target is GST-AF1 (human) (UniProt P04150). Nature of the assay: pull-down; GST fusion or GST immobilised on glutathione-Sepharose beads; purified JDP-2 or TBPC added, 2 h; washed; SDS-PAGE with Coomassie Blue staining; both purified.
A further assay deals with GST-DBD (human) (UniProt P04150). The description is as above.

With “TATA box binding protein (TBPC) (from UniProt P20226 1-339)”, the figures for the binding result with GST-AF1 (human) and in the assay with GST-DBD (human) were “binds” and “no binding”, respectively.

B1: jun dimerization protein 2 (JDP2) (protein, UniProt Q8WYK2 1-163)
chain: MMPGQIPDPSVTTGSLPGLGPLTGLPSSALTVEELKYADIRNLGAMIAPLHFLEVKLGKRPQPVKSELDEEEERRKRRREKNKVAAARCRNKKKERTEFLQRESERLELMNAELKTQIEELKQERQQLILMLNRHRPTCIVRTDSVKTPESEGNPLLEQLEKK
As for B1, the values for the binding result with GST-AF1 (human) and with GST-DBD (human) were “no binding” and “binds”, respectively.
